Assay [1] deals with T1, FLAG-TRIP6, full length (WT) (human) (UniProt Q15654).
T1 sequence: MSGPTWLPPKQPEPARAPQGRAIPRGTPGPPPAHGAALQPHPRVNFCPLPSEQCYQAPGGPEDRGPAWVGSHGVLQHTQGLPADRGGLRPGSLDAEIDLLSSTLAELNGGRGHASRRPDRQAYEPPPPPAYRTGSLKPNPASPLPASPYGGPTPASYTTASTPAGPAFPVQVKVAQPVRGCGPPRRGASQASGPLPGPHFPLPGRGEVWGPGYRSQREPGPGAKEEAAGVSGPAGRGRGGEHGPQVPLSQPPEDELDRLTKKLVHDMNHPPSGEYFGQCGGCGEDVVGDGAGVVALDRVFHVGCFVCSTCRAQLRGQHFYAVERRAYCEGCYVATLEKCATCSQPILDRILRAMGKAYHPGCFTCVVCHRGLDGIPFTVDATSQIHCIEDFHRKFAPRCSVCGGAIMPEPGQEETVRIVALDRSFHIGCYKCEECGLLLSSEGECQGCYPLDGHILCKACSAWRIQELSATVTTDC
In words: co-IP.

The target in assay [2] is T2, TRIP6, endogenous (human (endogenous in MCF10A)) (UniProt Q15654).
T2 sequence: T1 sequence
Description: co-IP.

Results are given in words; binding and its absence hold for the method and conditions named. Binding seen in cells or lysates may run through a third protein. Binding calls can cover weak binding; strength is not graded here. For some assays here: Tags and fused reporters may be left off the sequences shown.

Take “N-terminal region of LATS2 (LATS2-GFP deletion mutant) (domain or fragment)”: the binding result in assay [1] is “binds”.
Regarding “vinculin, endogenous (from UniProt P18206-2)”, the binding entry in assay [2] is “binds”.

The values are drawn from doi:10.1101/182204.
